Primary screen of a compound library

Chains of the proteins cited; added tags and fusions are not shown.
UniProt P9WFT3, whole entry: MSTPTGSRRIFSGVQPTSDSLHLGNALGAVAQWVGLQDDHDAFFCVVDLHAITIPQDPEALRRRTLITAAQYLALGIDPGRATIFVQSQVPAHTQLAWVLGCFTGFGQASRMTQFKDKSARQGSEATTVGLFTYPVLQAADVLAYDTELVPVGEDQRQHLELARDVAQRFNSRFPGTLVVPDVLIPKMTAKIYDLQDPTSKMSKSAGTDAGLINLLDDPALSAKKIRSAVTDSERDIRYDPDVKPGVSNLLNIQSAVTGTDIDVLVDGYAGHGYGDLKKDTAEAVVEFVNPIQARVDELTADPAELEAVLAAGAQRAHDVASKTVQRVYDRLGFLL

Measurements from “University of Dundee, Small-Polar-MMV Screening Library” (2021), ChEMBL document CHEMBL3988442.

MtTrpRS: 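Tryptophan-tRNA ligase, Mycobacterium tuberculosis (UniProt P9WFT3). Enzyme assay of tryptophanyl-tRNA synthetase; the read-out is not stated. Tested at 10 µM. Higher most likely means stronger inhibition; the record gives no direction and few retests gave an IC50. Size under these conditions: about 65,000 compounds, about 64 of them at 50% or above in at least one test.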
Leishmania in macrophages: 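Cell assay of Leishmania donovani living inside macrophages; the read-out is not stated. Compounds at 30 µM. The record gives no direction; compounds that gave an IC50 in retests scored well above the rest, so higher reads as stronger inhibition. Of about 69,000 compounds tested this way, about 1,000 (1.5%) reached 50% or more in at least one test.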

Results are given as percent effect.
The record does not define 0% and 100%; most values in the screen are far below 50% and negative numbers occur (in some assays of this library far below -100).
The compounds are a random part of those screened.
Two or more numbers in one place are separate tests of the same structure; such repeats can differ widely.
A dash means the value is not listed here; it may have been measured.

| SMILES | MtTrpRS | Leishmania in macrophages |
|---|---|---|
| `[H][C@@]12C[C@H](O)CCN1C(=O)CN(CCSC(C)(C)C)C2=O` | - | -23.03 |
| `CC(C)CSCCCNC(=O)C1CCC1` | -3.137 | 13.78 |
| `CC(C)CN1CC(O)CN(S(=O)(=O)c2ccc(F)cc2)CC1=O` (centres undefined) | - | 5.47 |
| `O=C(Cc1ccc(F)cc1)NCCNS(=O)(=O)c1ccc(F)c(F)c1` | -0.2337 | 31.65 |
| `COCCO[C@H]1CCN(C(=O)c2ccno2)[C@H]1Cc1ccncc1` | -0.9856 | - |
| `CC(=O)N1CC2(CCN(c3nccc4ccccc34)CC2)CC1C(=O)O` (centres undefined) | 3.704 | 14.19 |
| `CC(c1ccc(F)c(F)c1)N1CCN(Cc2nccn2C)CC1` (centres undefined) | 0.07994 | -8.052 |
| `O=C(NCCc1ccncc1)c1cccc(S(=O)(=O)N[C@@H]2CCNC2)c1` | -1.926 | 36.72 |
| `COc1ccccc1N1CCN(C(=O)COc2c(C)occc2=O)CC1` | -3.34 | -6.457 and 26.47 |
| `O=C(CN1C(=O)CCC1=O)NCC1(O)CCc2ccccc21` (centres undefined) | -1.36 | -9.479 |
| `c1ccc(-n2nnnc2CNCc2ccc3c(c2)OCCO3)cc1` | 4.475 | 13.59 |
| `FC(F)(F)CCc1ncnn1-c1ccc2c(c1)OCO2` | -5.679 | -12.75 |
| `CC(C)CCN1CCC2(CC1)CN(C(=O)c1cnccn1)CCO2` | 2.413 | - |
| `Cc1ccc(C(=O)N2CCc3c(CN4CCCC4)nn(C)c3C2)cc1C.O=C(O)C(F)(F)F` | - | 31.31 |
| `[H][C@]12CCN(Cc3cccs3)[C@@]1([H])C[C@H](C(=O)N1CCOCC1)O2` | - | 2.914 |
| `CCN(CC)S(=O)(=O)N1CCC(c2nccn2Cc2ccccn2)CC1` | 8.994 | -1.072 |
| `CCN(CC)C(CNC(=O)c1cccnc1-n1cncn1)c1ccsc1` (centres undefined) | -0.8043 | 2.084 |
| `Cc1cc(C)cc(CNC(C)c2c(C)nn(C)c2C)c1` (centres undefined) | -9.567 | 17.08 |
| `O=C(c1nc(COc2ccc3c(c2)OCO3)no1)N1CCCC1` | -2.814 | -28.23 |
| `O=C(NCc1nnc2ccccn12)N1CCOC(c2cccs2)C1` (centres undefined) | -0.2075 | 17.5 |
| `O=C(NS(=O)(=O)Cc1ccon1)c1ccsc1` | -4.47 | 5.152 |
| `CCCN(Cc1nc(-c2ccoc2)oc1C)CC1CCCO1` (centres undefined) | -1.342 | 29.16 |
| `Cc1cccc(N(C)S(=O)(=O)c2cc(C(=O)O)cs2)c1` | 12.92 | -10.88 |
| `O=C(O)C(F)(F)F.O=C(O)C(F)(F)F.[H][C@]12C[C@H](C(=O)NCC3CC3)N(C)[C@@]1([H])CN(Cc1ccsc1)C2` | - | 1.588 |
| `Cc1noc(C)c1-c1ccc(C2CCCN2C(=O)c2cnn(C)c2)nc1` (centres undefined) | 0.05798 | 10.23 and 17.04 |
| `O=C(NCCn1ccnc1C1CCOC1)c1cccnc1` (centres undefined) | 1.911 | 21.11 |
| `CCN1Cc2c(C(=O)NC(C)C)ncn2-c2ccccc2S1(=O)=O` | -5.679 | 44.4 |
| `Cc1csc(CN2CC[C@H]3C[C@H](c4nnc(C)[nH]4)O[C@@H]3C2)n1` | -1.727 | - |
| `COc1ccc(OC)c2c(C)cc(N(C)CCO)nc12` | 6.717 | 30.06 |
| `O=C(c1cn2ccsc2n1)N1CCOCC(O)(CN2CCCC2)C1` (centres undefined) | -0.09099 | 11.01 |
| `O=C(c1cncc2ccccc12)N1CCC[C@@H]1CO` | -3.36 | 27.94 |
| `CCc1nnsc1C(=O)NCCc1nnc2n1CCC2` | -3.249 | 13.22 |
| `Cc1noc(Cl)c1CCC(=O)N1CCN(CC(C)(C)O)CC1` | 12.2 | -19.58 |
| `Cc1nn(C)cc1C1CC(=O)Nc2c1cnn2C(C)C` (centres undefined) | -1.555 | -13.57 |
| `CCN(Cc1ccoc1)C(=O)NC1CCN(C(=O)OC(C)(C)C)C1` (centres undefined) | -0.8777 | 4.532 |
| `Cc1cc(C(=O)N(C)C)c2c(Br)cccc2n1` | 3.415 | -2.6 |
| `O=C(O)C(F)(F)F.[H][C@@]12CN(C(=O)C(C)C)CCC[C@]1(C(=O)N(C)C)CN(c1ccccn1)C2` | - | -1.538 |
| `O=C(NCCNc1ncccn1)N1CCN(c2nccs2)CC1` | -3.39 | 13.95 |
| `Cc1ccnc(C2CCCN2C(=O)CN(C)C)n1` (centres undefined) | - | 5.612 |
| `O=C(O)C(F)(F)F.[H][C@]12CCN(C(=O)c3ccno3)[C@@]1([H])CC[C@@H](COCCN1CCCC1)O2` | - | 28.08 |
| `Cc1cc(C)n(CC2CCCN2C(=O)Cc2cn3ccsc3n2)n1` (centres undefined) | 9.218 | -6.02 |
| `O=C(NC[C@H]1OC[C@@H](NCc2ccccn2)[C@@H]1O)c1ccncc1` | -0.8391 | 22.88 |
| `O=C([C@@H]1C[C@@H]2CCN(Cc3ccco3)C[C@H]2O1)N1CCCO1` | -0.07969 | - |
| `CC(C)(C)n1ncc2c1CCCC2NCc1cccc2c1OCO2` (centres undefined) | 1.852 | 1.584 |
| `OC[C@H]1CN(C2Cc3ccccc3C2)C[C@H]1CN1CCC(O)CC1` | 6.034 | 12.1 |
| `Cc1n[nH]c(C2CN(CCNC3CCCCC3)CCO2)n1` (centres undefined) | -3.494 | 14.41 |
| `Cc1cccc(NC(=O)N2CCC3(CC(=O)N(c4ccsc4)C3)C2)c1` (centres undefined) | -5.804 | 3.007 |
| `COCCCc1nc(-c2ccc(S(=O)(=O)N3CCCC3)cc2)cs1` | -5.717 | 14.69 |
| `COc1nn(C)c2c1CCCN(C(=O)c1cccc3cccnc13)C2.O=C(O)C(F)(F)F` | - | 75.35 |
| `Cc1ccc2cc(C3(O)CCN(C(=O)CN4CCCC4)CC3)ccc2n1` | -2.085 | 1.009 |
| `CN(Cc1cccs1)C1CCC[C@@H]2CN(C(=O)c3cnccn3)C[C@H]12` (some centres undefined) | -3.991 | - |
| `O=C(c1n[nH]c2c1CN(C1CCOCC1)CC2)N1CCCC1` | -7.413 | - |
| `Cc1cc(CN(C)C(=O)C2CC(=O)N(Cc3cccnc3)C2)on1` (centres undefined) | -1.586 | 24.92 |
| `O=C(NCc1ccccc1Cn1cncn1)N1CCCC1` | -0.2194 | 11.62 |
| `CCN1CCC(NC(=O)c2ccc(F)cc2I)CC1` | 2.419 | 9.889 |

Some entries from above, unchanged:

{"smiles": "Cc1cccc(NC(=O)N2CCC3(CC(=O)N(c4ccsc4)C3)C2)c1", "stereo": "centres undefined", "MtTrpRS": -5.804, "Leishmania in macrophages": 3.007}
{"smiles": "CCc1nnsc1C(=O)NCCc1nnc2n1CCC2", "MtTrpRS": -3.249, "Leishmania in macrophages": 13.22}
{"smiles": "O=C(NCc1ccccc1Cn1cncn1)N1CCCC1", "MtTrpRS": -0.2194, "Leishmania in macrophages": 11.62}
{"smiles": "O=C(CN1C(=O)CCC1=O)NCC1(O)CCc2ccccc21", "stereo": "centres undefined", "MtTrpRS": -1.36, "Leishmania in macrophages": -9.479}
{"smiles": "O=C(NCCc1ccncc1)c1cccc(S(=O)(=O)N[C@@H]2CCNC2)c1", "MtTrpRS": -1.926, "Leishmania in macrophages": 36.72}
{"smiles": "COc1ccc(OC)c2c(C)cc(N(C)CCO)nc12", "MtTrpRS": 6.717, "Leishmania in macrophages": 30.06}